{
  "source": "patent US6376541B1",
  "about": "“Upregulation of endogenous prostaglandins to lower intraocular pressure” (Alcon Manufacturing, Ltd., priority 1998, dated 2002)",
  "origin": "cited, not measured here",
  "key": {"[1]": {"test_system": "cultured monkey trabecular meshwork cells", "conditions": "cited from earlier work"}, "[2]": {"test_system": "cultured trabecular-meshwork cells", "conditions": "cited from earlier work"}},
  "note": "At least one compound was matched to its structure with a doubt left. Where a SMILES comes first, the peptide text is derived from it.",
  "data": [
    {"smiles": "NC(N)=NCCC[C@H](NC(=O)[C@H](Cc1ccccc1)NC(=O)[C@@H]1CCCN1C(=O)[C@H](CO)NC(=O)[C@H](Cc1ccccc1)NC(=O)CNC(=O)[C@@H]1CCCN1C(=O)[C@@H]1CCCN1C(=O)[C@@H](N)CCCN=C(N)N)C(=O)O", "note": "[bradykinin] (H-RPPGFSPFR-OH)", "values": [
      {"measurement": "effect on PGE2 synthesis", "setting": "[1]", "value": "stimulation"},
      {"measurement": "effect on PGE2 synthesis", "setting": "[2]", "value": "stimulate PGE2 synthesis"}
    ]}
  ]
}
